# Results from the supplement of paper PMC10849652.
# By UniProt entry, the sequences of proteins in these tests, tags left out. Where a name states a change or a piece, a line headed by the entry shows the natural chain unless it says otherwise.
# UniProt Q9UMR5: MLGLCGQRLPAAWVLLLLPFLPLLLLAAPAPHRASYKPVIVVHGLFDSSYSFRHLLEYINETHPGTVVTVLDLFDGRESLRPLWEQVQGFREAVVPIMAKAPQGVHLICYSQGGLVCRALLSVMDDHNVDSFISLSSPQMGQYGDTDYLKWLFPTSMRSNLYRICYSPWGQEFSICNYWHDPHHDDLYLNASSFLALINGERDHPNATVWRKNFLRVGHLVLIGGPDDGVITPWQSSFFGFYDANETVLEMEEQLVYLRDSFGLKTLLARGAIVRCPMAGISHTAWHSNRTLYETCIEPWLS
# UniProt P60510: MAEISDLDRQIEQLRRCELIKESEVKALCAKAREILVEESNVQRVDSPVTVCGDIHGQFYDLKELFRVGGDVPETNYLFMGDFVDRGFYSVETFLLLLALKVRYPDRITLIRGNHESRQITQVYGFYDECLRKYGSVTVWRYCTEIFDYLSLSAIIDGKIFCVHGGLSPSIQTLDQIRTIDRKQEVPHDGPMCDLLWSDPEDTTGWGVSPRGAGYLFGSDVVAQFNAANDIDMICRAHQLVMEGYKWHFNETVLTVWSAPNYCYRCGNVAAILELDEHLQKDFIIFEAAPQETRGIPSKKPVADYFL
# UniProt Q96SB3: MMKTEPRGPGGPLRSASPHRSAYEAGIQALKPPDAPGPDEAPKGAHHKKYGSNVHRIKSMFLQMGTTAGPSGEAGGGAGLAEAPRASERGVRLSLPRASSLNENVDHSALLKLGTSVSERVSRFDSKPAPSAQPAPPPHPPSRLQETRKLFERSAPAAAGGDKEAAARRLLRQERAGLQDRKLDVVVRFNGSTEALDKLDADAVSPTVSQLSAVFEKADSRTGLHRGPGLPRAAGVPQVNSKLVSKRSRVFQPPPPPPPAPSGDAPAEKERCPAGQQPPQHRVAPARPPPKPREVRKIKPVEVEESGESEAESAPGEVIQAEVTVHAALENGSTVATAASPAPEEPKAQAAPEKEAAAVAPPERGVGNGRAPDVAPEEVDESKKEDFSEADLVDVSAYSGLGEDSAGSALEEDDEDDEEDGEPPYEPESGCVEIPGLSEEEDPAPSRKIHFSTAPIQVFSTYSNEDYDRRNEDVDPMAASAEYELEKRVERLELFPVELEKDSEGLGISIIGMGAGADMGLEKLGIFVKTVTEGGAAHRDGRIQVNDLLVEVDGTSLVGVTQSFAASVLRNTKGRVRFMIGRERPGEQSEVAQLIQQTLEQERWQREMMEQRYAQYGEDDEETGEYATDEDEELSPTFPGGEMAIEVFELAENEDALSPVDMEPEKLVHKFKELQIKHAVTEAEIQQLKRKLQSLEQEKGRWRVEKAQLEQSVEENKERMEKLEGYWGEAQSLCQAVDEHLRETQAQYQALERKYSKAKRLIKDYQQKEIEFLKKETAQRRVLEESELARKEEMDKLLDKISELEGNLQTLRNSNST
# UniProt Q9NVM4: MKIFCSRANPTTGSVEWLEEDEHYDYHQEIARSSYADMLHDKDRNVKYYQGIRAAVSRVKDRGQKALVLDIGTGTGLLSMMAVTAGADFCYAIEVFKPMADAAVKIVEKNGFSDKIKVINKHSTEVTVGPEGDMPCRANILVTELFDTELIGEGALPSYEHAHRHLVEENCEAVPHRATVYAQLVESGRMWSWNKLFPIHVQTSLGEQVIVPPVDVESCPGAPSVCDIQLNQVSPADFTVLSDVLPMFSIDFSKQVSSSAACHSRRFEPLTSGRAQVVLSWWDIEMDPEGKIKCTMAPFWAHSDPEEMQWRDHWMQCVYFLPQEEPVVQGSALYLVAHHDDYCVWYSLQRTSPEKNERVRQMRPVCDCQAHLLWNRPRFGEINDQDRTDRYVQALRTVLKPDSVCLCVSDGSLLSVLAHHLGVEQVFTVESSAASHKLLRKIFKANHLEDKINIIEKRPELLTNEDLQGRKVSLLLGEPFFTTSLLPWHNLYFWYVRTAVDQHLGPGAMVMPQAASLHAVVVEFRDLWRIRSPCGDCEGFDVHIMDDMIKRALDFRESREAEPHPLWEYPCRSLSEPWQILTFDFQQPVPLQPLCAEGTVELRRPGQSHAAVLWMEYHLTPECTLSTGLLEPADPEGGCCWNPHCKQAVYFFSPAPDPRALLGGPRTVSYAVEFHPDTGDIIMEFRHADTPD
# UniProt Q5MIZ7: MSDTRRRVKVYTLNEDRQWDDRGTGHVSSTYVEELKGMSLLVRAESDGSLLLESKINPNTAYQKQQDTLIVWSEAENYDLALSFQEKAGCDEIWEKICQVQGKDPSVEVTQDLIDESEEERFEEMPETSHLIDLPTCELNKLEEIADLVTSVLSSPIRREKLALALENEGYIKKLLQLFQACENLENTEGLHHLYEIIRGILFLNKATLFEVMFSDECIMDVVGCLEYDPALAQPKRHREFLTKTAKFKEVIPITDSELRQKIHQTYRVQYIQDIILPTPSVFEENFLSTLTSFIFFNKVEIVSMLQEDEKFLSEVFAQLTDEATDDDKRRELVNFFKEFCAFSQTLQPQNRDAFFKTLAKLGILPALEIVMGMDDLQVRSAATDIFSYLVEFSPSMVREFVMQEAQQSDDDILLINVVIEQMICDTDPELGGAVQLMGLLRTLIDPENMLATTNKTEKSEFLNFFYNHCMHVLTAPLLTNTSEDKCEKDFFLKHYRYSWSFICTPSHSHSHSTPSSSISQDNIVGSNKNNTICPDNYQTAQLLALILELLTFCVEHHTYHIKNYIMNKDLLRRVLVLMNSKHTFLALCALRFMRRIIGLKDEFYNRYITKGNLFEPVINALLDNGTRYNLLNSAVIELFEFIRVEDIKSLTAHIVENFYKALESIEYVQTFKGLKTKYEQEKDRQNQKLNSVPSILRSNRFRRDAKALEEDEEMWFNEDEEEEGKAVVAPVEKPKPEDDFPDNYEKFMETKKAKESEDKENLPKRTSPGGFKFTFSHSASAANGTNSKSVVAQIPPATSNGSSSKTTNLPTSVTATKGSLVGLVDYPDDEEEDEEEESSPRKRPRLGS
# UniProt O60828: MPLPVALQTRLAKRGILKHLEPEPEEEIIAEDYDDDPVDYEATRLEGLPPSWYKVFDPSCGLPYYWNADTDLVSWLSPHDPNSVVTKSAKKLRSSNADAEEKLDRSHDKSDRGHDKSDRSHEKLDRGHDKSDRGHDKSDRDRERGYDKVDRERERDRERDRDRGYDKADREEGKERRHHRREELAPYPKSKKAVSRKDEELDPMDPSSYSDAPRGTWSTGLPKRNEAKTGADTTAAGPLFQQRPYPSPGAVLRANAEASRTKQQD
# UniProt Q9UNN8: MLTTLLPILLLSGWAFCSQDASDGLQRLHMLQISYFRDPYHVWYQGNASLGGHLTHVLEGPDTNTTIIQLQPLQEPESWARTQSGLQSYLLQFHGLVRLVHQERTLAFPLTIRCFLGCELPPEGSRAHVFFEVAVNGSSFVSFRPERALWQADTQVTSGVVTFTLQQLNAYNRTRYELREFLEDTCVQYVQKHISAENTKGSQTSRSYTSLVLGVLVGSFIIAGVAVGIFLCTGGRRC
# UniProt Q9NY27: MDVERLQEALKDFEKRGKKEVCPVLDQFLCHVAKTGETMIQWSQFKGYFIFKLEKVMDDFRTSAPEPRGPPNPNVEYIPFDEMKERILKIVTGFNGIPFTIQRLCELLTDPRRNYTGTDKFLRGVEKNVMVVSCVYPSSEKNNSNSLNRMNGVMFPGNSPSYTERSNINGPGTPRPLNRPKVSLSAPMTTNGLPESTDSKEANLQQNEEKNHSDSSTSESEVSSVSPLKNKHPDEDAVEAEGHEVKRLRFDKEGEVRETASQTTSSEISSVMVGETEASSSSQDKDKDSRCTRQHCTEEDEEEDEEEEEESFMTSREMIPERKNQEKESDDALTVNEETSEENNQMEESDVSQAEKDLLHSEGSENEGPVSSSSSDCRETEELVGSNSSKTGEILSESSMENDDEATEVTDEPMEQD
# UniProt Q99633: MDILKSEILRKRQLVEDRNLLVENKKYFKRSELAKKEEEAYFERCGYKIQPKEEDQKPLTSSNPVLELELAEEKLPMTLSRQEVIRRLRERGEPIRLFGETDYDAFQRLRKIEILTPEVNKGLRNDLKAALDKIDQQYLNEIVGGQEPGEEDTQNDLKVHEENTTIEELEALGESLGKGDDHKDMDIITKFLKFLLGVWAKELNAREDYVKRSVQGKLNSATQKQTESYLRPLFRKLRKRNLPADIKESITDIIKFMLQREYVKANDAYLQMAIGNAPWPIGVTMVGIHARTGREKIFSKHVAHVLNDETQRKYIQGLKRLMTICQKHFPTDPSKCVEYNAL
# UniProt P63151: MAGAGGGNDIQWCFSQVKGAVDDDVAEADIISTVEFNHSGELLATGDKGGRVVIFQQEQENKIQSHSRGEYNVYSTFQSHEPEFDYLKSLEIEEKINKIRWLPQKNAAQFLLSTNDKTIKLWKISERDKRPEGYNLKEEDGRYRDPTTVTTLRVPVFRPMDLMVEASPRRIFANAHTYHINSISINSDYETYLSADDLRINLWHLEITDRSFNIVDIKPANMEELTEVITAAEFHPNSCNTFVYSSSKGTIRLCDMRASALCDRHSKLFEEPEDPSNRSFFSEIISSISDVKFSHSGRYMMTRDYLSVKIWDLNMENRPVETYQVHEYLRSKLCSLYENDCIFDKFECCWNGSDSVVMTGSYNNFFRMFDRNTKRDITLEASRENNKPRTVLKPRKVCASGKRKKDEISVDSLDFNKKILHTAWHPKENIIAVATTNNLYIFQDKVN
# UniProt Q8TF05: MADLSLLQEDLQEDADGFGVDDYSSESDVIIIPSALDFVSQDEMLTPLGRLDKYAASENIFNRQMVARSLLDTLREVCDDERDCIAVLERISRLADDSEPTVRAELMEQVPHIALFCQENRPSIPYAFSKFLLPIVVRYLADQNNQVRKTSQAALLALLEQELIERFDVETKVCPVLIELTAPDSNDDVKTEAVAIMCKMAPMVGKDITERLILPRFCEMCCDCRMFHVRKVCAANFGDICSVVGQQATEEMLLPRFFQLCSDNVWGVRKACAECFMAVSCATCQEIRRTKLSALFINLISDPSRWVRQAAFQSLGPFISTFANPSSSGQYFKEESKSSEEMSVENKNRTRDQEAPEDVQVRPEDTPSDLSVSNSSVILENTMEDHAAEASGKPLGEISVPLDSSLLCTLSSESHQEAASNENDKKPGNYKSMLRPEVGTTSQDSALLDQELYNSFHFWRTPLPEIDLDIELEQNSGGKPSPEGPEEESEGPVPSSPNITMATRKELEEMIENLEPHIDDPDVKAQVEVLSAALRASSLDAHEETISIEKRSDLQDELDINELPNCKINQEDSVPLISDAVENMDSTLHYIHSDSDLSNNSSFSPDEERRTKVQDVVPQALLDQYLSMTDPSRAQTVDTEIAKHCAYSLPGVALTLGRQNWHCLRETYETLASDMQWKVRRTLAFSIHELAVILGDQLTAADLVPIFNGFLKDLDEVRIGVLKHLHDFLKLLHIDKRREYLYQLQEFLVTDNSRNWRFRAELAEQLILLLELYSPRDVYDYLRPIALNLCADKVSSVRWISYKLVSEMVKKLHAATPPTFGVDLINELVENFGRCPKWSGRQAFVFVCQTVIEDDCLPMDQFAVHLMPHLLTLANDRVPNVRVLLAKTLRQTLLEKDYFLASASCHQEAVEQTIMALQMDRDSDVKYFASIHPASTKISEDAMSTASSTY
# UniProt Q15172: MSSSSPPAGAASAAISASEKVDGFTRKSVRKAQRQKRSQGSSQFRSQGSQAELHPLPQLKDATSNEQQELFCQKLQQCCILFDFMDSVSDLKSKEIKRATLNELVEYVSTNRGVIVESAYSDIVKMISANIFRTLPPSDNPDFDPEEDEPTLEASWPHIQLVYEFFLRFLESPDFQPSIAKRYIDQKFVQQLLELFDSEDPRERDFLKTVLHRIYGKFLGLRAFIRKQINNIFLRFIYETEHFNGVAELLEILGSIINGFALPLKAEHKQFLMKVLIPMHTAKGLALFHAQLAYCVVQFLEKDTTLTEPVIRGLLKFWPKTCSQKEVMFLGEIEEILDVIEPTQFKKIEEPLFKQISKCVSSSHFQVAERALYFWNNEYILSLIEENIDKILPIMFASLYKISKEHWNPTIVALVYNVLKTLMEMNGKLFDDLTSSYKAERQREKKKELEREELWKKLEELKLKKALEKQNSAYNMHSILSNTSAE
# UniProt Q86WR7: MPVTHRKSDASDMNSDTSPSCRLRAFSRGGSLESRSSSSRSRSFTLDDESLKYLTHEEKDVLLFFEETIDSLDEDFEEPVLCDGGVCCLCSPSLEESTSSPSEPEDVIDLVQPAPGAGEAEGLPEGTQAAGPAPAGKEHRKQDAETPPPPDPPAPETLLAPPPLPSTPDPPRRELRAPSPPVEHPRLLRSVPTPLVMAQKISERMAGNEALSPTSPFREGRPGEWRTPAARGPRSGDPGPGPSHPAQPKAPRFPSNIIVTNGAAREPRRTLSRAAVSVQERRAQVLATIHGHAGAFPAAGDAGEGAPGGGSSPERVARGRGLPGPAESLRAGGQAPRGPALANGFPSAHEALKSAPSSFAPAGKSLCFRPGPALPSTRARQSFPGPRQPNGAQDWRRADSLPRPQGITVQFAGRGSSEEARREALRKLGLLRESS
# Some of the results follow.
# What was measured:
# Experiment in all cases: log2 fold change, soluble protein after heating vs DMSO (PISA); higher = thermal stabilisation; K562 lysate, 10 uM; active = over 0.2 and 3.5 SD of the protein, either way, in both replicates (recomputed)
# nilotinib = compound: Cc1cn(-c2cc(NC(=O)c3ccc(C)c(Nc4nccc(-c5cccnc5)n4)c3)cc(C(F)(F)F)c2)cn1 [nilotinib]
# Method in brief: (§1)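 Pellets of K562 cells were dounce-homogenised in PBS pH 7.4 with 1 mM MgCl2, and the crude extract was held at 1 mg/mL protein for a 30 min treatment with 10 μM compound. Aliquots were heated for 3 min over 48°C-58°C and pooled before NP-40 was added to 0.5% at 4°C. The supernatant from 21,000xg for 90 min was quantified by TMTpro 16plex LC-MS/MS with channel sums equalised. Values are reported from duplicates as log-two fold change in thermal stability relative to solvent controls.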
# [1] = compound: Cc1nc(Nc2n[nH]c3c2CN(C(=O)N[C@H](CN(C)C)c2ccccc2)C3(C)C)c2sccc2n1
# Method in brief: as §1
# dasatinib = compound: Cc1nc(Nc2ncc(C(=O)Nc3c(C)cccc3Cl)s2)cc(N2CCN(CCO)CC2)n1 [dasatinib]
# Method in brief: as §1
# [2] = compound: Cc1ncc(-c2ccnc(Nc3ccc(S(C)(=O)=O)cc3)n2)n1C(C)C
# Method in brief: as §1
# [3] = compound: Cn1cc(-c2ccc3c(c2)CCN3C(=O)Cc2cccc(C(F)(F)F)c2)c2c(N)ncnc21
# Method in brief: as §1
# quisinostat = compound: Cn1cc(CNCC2CCN(c3ncc(C(=O)NO)cn3)CC2)c2ccccc21 [quisinostat]
# Method in brief: as §1
# tipifarnib = compound: Cn1cncc1[C@@](N)(c1ccc(Cl)cc1)c1ccc2c(c1)c(-c1cccc(Cl)c1)cc(=O)n2C [tipifarnib]
# Method in brief: as §1
# [4] = compound: NC(=O)Nc1cc(-c2cccc(F)c2)sc1C(=O)N[C@H]1CCCNC1
# Method in brief: as §1
# [5] = compound: NC(=O)c1cnc(N[C@@H]2CCCC[C@@H]2N)nc1Nc1cccc(-n2nccn2)c1
# Method in brief: as §1
# [6] = compound: NC1(c2ccc(-c3nc4ccn5c(=O)[nH]nc5c4cc3-c3ccccc3)cc2)CCC1
# Method in brief: as §1
# [7] = compound: NCC(=O)Nc1ccc(-n2nc(C(F)(F)F)cc2-c2ccc3c(ccc4ccccc43)c2)cc1
# Method in brief: as §1
# vorinostat = compound: O=C(CCCCCCC(=O)Nc1ccccc1)NO [vorinostat]
# Method in brief: as §1
# silmitasertib = compound: O=C(O)c1ccc2c(c1)nc(Nc1cccc(Cl)c1)c1ccncc12 [silmitasertib]
# Method in brief: as §1
# [8] = compound: O=C1NC(=O)C(c2cnc3ccccn23)=C1c1cn2c3c(cc(F)cc13)CN(C(=O)N1CCCCC1)CC2
# Method in brief: as §1
# entospletinib = compound: c1cn2cc(-c3ccc4cn[nH]c4c3)nc(Nc3ccc(N4CCOCC4)cc3)c2n1 [entospletinib]
# Method in brief: as §1
Target,log2 fold change (nilotinib),log2 fold change [1],log2 fold change (dasatinib),log2 fold change [2],log2 fold change [3],log2 fold change (quisinostat),log2 fold change (tipifarnib),log2 fold change [4],log2 fold change [5],log2 fold change [6],log2 fold change [7],log2 fold change (vorinostat),log2 fold change (silmitasertib),log2 fold change [8],log2 fold change (entospletinib)
PPT2 isoform 3 (UniProt Q9UMR5),inactive: 0.01,inactive: -0.019,inactive: 0.006,inactive: -0.019,inactive: 0.025,inactive: -0.004,inactive: -0.025,inactive: 0.032,inactive: 0.002,inactive: 0.02,inactive: 0.055,active: 0.398,inactive: 0.034,inactive: -0.018,inactive: -0.006
PPIL4 (UniProt Q8WUA2),inactive: -0.019,inactive: 0.031,inactive: 0.052,inactive: -0.02,inactive: 0.013,inactive: -0.033,inactive: 0.009,inactive: -0.01,inactive: 0.012,inactive: -0.042,inactive: 0.023,inactive: -0.075,inactive: 0.027,inactive: -0.042,inactive: -0.077
PPP4C (UniProt P60510),inactive: 0.016,inactive: -0.045,inactive: 0.059,inactive: 0.028,inactive: 0.022,inactive: -0.046,inactive: 0.006,inactive: -0.029,inactive: -0.022,inactive: -0.01,inactive: 0.035,inactive: 0.093,inactive: 0.027,inactive: -0.03,inactive: 0.013
PRPF19 (UniProt Q9UMS4),inactive: 0.004,inactive: -0.023,inactive: 0.023,inactive: -0.02,inactive: 0.019,inactive: -0.006,inactive: 0.018,inactive: -0.017,inactive: -0.013,inactive: 0.019,inactive: -0.027,inactive: 0.031,inactive: -0.01,inactive: -0.028,inactive: 0.007
PRDX5 (UniProt P30044),inactive: 0.005,inactive: 0.006,inactive: 0.006,inactive: 0.018,inactive: -0.002,inactive: 0.02,inactive: 0.022,inactive: -0.037,inactive: -0.012,inactive: 0.016,inactive: -0.07,inactive: 0.061,inactive: -0.002,inactive: 0,inactive: 0.004
PRPF3 (UniProt O43395),inactive: -0.003,inactive: 0.037,inactive: -0.003,inactive: 0.012,inactive: 0.011,inactive: 0.019,inactive: 0.004,inactive: 0.012,inactive: -0.004,inactive: 0.006,inactive: -0.046,inactive: -0.035,inactive: 0.063,inactive: 0.006,inactive: 0.011
PPP1R9B (UniProt Q96SB3),inactive: -0.054,inactive: 0.018,inactive: 0.033,inactive: -0.011,inactive: 0.053,inactive: 0.01,inactive: 0.017,inactive: -0.002,inactive: 0.002,inactive: 0.026,inactive: 0,inactive: 0.166,inactive: 0.035,inactive: 0,inactive: 0.018
PRMT7 (UniProt Q9NVM4),inactive: 0.039,inactive: -0.01,inactive: 0.032,inactive: -0.029,inactive: -0.032,inactive: -0.041,inactive: -0.011,inactive: 0.023,inactive: 0.028,inactive: 0.025,inactive: -0.017,inactive: -0.174,inactive: -0.011,inactive: 0.04,inactive: -0.018
PPP4R3B (UniProt Q5MIZ7),inactive: 0.019,inactive: -0.006,inactive: 0,inactive: -0.029,inactive: 0.024,inactive: -0.053,inactive: 0.001,inactive: 0.027,inactive: 0.014,inactive: -0.001,inactive: -0.039,inactive: 0.006,inactive: 0.019,inactive: 0.002,inactive: 0.019
PPP3R1 (UniProt P63098),inactive: 0.012,inactive: -0.006,inactive: -0.022,inactive: 0.04,inactive: -0.004,inactive: 0.028,inactive: 0.017,inactive: -0.04,inactive: 0.006,inactive: 0.011,inactive: -0.019,inactive: 0.137,inactive: -0.006,inactive: 0.023,inactive: -0.019
PQBP1 (UniProt O60828),inactive: 0.017,inactive: -0.012,inactive: 0.051,inactive: 0.007,inactive: 0.015,inactive: -0.011,inactive: -0.02,inactive: -0.046,inactive: -0.04,inactive: 0.013,inactive: 0.027,inactive: 0.105,inactive: -0.087,inactive: 0.008,inactive: 0.002
PROCR (UniProt Q9UNN8),inactive: -0.26,inactive: -0.054,inactive: 0.049,inactive: -0.14,inactive: 0.165,inactive: 0.035,inactive: -0.102,inactive: -0.067,inactive: -0.003,inactive: -0.031,inactive: -0.055,inactive: 0.11,inactive: 0.103,inactive: -0.036,inactive: -0.266
PPM1B (UniProt O75688),inactive: 0.006,inactive: -0.005,inactive: -0.003,inactive: 0.028,inactive: -0.004,inactive: -0.041,inactive: -0.006,inactive: 0.005,inactive: 0.016,inactive: -0.02,inactive: 0.039,inactive: 0.039,inactive: -0.007,inactive: -0.012,inactive: -0.021
PPP4R2 (UniProt Q9NY27),inactive: 0.012,inactive: 0.018,inactive: 0.029,inactive: 0.005,inactive: -0.028,inactive: -0.009,inactive: -0.042,inactive: -0.011,inactive: 0.009,inactive: -0.01,inactive: -0.007,inactive: -0.053,inactive: -0.016,inactive: 0.023,inactive: -0.001
PRPF4 (UniProt O43172),inactive: 0.024,inactive: -0.018,inactive: -0.008,inactive: 0.003,inactive: -0.001,inactive: 0.016,inactive: 0.023,inactive: -0.015,inactive: 0.004,inactive: 0.001,inactive: 0.004,inactive: 0.086,inactive: 0.014,inactive: 0.017,inactive: 0.008
PRPF18 (UniProt Q99633),inactive: -0.082,inactive: 0.21,inactive: 0.03,inactive: -0.042,inactive: -0.002,inactive: -0.045,inactive: -0.086,inactive: 0.029,inactive: 0.02,inactive: 0.018,inactive: -0.002,inactive: -0.097,inactive: -0.007,inactive: 0.032,inactive: -0.009
PPP2R2A isoform 2 (UniProt P63151),inactive: -0.005,inactive: -0.015,inactive: -0.045,inactive: 0.009,inactive: -0.005,inactive: 0.023,inactive: 0.004,inactive: -0.007,inactive: -0.006,inactive: -0.044,inactive: 0.034,inactive: 0.077,inactive: -0.032,inactive: 0.011,inactive: 0
PPP4R1 (UniProt Q8TF05),inactive: -0.015,inactive: -0.005,inactive: -0.041,inactive: -0.021,inactive: -0.017,inactive: -0.018,inactive: 0.012,inactive: 0.032,inactive: 0.009,inactive: 0.001,inactive: 0.007,inactive: -0.198,inactive: 0.002,inactive: -0.004,inactive: -0.014
PPP2R5A (UniProt Q15172),inactive: -0.011,inactive: -0.036,inactive: -0.104,inactive: 0.04,inactive: 0.046,inactive: -0.042,inactive: 0.029,inactive: 0.028,inactive: 0.008,inactive: -0.008,inactive: 0.015,inactive: -0.151,inactive: 0.036,inactive: 0.045,inactive: -0.018
PRCC (UniProt Q92733),inactive: -0.005,inactive: 0.012,inactive: -0.014,inactive: 0.003,inactive: -0.028,inactive: -0.071,inactive: -0.035,inactive: -0.001,inactive: -0.048,inactive: 0.009,inactive: 0.025,inactive: 0.145,inactive: -0.033,inactive: 0.019,inactive: -0.022
PROSER2 (UniProt Q86WR7),inactive: 0.012,inactive: -0.041,inactive: 0.012,inactive: -0.093,inactive: 0.032,inactive: -0.043,inactive: -0.001,inactive: 0.026,inactive: 0.002,inactive: 0.032,inactive: -0.005,inactive: -0.1,inactive: -0.008,inactive: -0.027,inactive: 0.041

# Copied from the list:
# Entry for PROSER2 (UniProt Q86WR7) under log2 fold change (vorinostat): inactive: -0.1
# Entry for PPP2R5A (UniProt Q15172) under log2 fold change [3]: inactive: 0.046
